Test results from patent US7553866B2, “Thiolactones” (Eisai Corporation of North America, priority 2003, dated 2009).
“Also recorded” adds a separate entry of the source.

System: C57/BL mice
Experiment: Acute effects in the tail-flick test (Experiment 2)
Details: mouse, in vivo
Procedure: Male C57/BL mice (IMP, Lodz, Poland), 22-24 g of body weight were group-housed in the standard laboratory cages and kept in a temperature-controlled colony room (21±2° C.) with a 12-hour light/dark cycle (light on: 07:00, off: 19:00). Commercial food and tap water were available ad libitum. Each experimental group consisted of 7-28 mice per treatment. All mice were used only once.
The intensity of the heat stimulus was adjusted so that the baseline tail-flick latency was ˜3 seconds. […] Each response assessment consisted of two separate measurements taken at different portions of the tail (spaced by 1.5-2 cm) and separated by 15 seconds. The mean of these responses was used for subsequent comparisons.
The N is given in brackets. Presented in FIG. 5 are mean±S.E.M. Area Under Curve (AUC) values calculated on the same data.

## CN1CC[C@]23c4c5ccc(O)c4O[C@H]2[C@@H](O)C=C[C@H]3[C@H]1C5 [Morphine, morphine]
  tail-flick responses (AUC) compared to placebo+placebo treatment: statistically significantly longer tail-flick responses; also recorded: differed significantly
